We go through 60 compounds from PubChem BioAssay AID651595 (National Center for Advancing Translational Sciences (NCATS), 2012).

Hit rate of the full screen: of about 1,100 compounds, fewer than 10 were called active. Inconclusive results (about 6%) are left out. The call rests on the fitted dose curve; in most records, active means well fitted cell-killing curve with a large enough effect; inconclusive means small, poorly fitted or top-dose-only effect; inactive means flat fitted curve, though single readings scatter. The list shows a part of the results.

The assay in a line: qHTS of Nrf2 Activators: Hit Validation in Cytotox Assay.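 Further: compound exposure lasted 24 hours before the ATP readout; 0% is about no effect.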 The following applies: Cell viability counter-screen for Nrf2 activator hits; series mostly up to 46.1 µM; activity change, negative = cytotoxicity: at the top concentration. In outline: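 AREc32_fluc cells plated overnight, then treated at 7 concentrations for 24 h at 37 °C. Viability from intracellular ATP by CellTiter-Glo luminescence after 30 min at room temperature; cytotoxic compounds flagged active.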
On to `Cc1cc(N2CCOCC2)n2nc(-c3cccc(F)c3)cc2n1`, for which the “activity change, negative = cytotoxicity” value was inactive: -13.4%. Still for that read-out and setting: the figure for `Fc1c(F)c(C(F)(F)F)c(F)c(F)c1N/N=C\c1cccs1` is inactive: -28.7%.

As for `COC(=O)c1ccccc1NC(=O)COCc1cc(-c2cccs2)on1`, the “activity change, negative = cytotoxicity” value was inactive: -21.2%.

Consider `Nc1ccccc1N1C(=O)c2cccc3cccc(c23)C1=O`, for which the “activity change, negative = cytotoxicity” value was inactive: 6.65%. For `N/C(=N\OC(=O)c1cccc2ccccc12)c1cccnc1`, the “activity change, negative = cytotoxicity” value is inactive: 3.66%. As for `Cn1c(=O)c(C(=O)NNC(=O)c2ccccc2F)c(O)c2ccccc21`, the “activity change, negative = cytotoxicity” value was inactive: -4.83%.

For the compound `N#C/C(=C\c1cccc([N+](=O)[O-])c1)c1ccccn1`, the “activity change, negative = cytotoxicity” value was inactive: 5.15%.

`CC(/C=C/c1ccco1)=N\NC(=O)CNc1ccc2ccccc2c1`: the “activity change, negative = cytotoxicity” value was inactive: -2.77%. `COc1ccc(O)c(-c2cc(-c3ccc(F)cc3)n[nH]2)c1`: the “activity change, negative = cytotoxicity” value is inactive: 2.95%. On the same count and under the same terms, the figure for `Cc1ccc(-c2nc(NCc3ccco3)c3ccccc3n2)cc1` is inactive: -1.85%; for `O=[N+]([O-])c1ccccc1C=CC=NN=Cc1ccccc1O` it is inactive: -2.17%; for `Cc1nc(C)c(C(=O)N/N=C/c2ccco2)s1` it is inactive: 7.03%. The same measure, in the same setting: the figure for `CSc1nsc(SC)c1NC(=O)Nc1ccccn1` is inactive: -2.47%; for `COc1ccccc1NC(=O)/C=C\c1ccco1` it is inactive: 2.45%. `O=C(Nc1cccnc1)C1(F)C(F)(F)C(F)(F)C(F)(F)C(F)(F)C1(F)F`: the “activity change, negative = cytotoxicity” value is inactive: -2.35%. Regarding `Cc1ccc(S(=O)(=O)c2nc(S(C)(=O)=O)sc2N2CCC(O)CC2)cc1`, the “activity change, negative = cytotoxicity” value was inactive: 3.03%. On to `Clc1ccc(C=Cc2ccccn2)c(Cl)c1`, for which the “activity change, negative = cytotoxicity” value is inactive: -2.5%. In the case of `Cc1ccccc1NC(=O)/C(C#N)=C\c1ccsc1`, the “activity change, negative = cytotoxicity” value is inactive: -2.53%. On to `CSc1ccc(-c2cc(=O)c3ccccc3o2)cc1`, for which the “activity change, negative = cytotoxicity” value is inactive: 1.34%.

In the case of `O=C(NC(=S)Nc1cc([N+](=O)[O-])ccc1Cl)c1ccccc1`, the “activity change, negative = cytotoxicity” value is inactive: 2.33%. The same measure, in the same setting: the figure for `Cc1nc(-c2ccccn2)sc1C(=O)Nc1ccc(F)cc1` is inactive: 7.45%. Turning to `COc1cccc(C(=O)Oc2ccccc2/C=C\C(=O)c2cc3ccccc3o2)c1`, the “activity change, negative = cytotoxicity” value is inactive: -28.6%.

Regarding `O=[N+]([O-])c1ccccc1N/N=C/c1c[nH]c2ccccc12`, the “activity change, negative = cytotoxicity” value is inactive: -6%. Turning to `Cc1[nH]c2ccccc2c1N=Nc1ccccc1F`, the “activity change, negative = cytotoxicity” value is inactive: -1.48%. The same measure, in the same setting: the figure for `C[C@H]1CCC[C@]2(C)C[C@H]3OC(=O)C(CN4CCCCCC4)[C@H]3C=C12` (stereo not given in full) is inactive: 25.1%; for `O=C(c1ccc(S(=O)(=O)Cc2ccccc2Cl)c([N+](=O)[O-])c1)N1CCOCC1` it is inactive: 1.45%; for `CCOc1ccc(Br)cc1-c1noc(-c2cccs2)n1` it is inactive: 3.28%. On to `O=C(COCc1cc(-c2cccs2)on1)Nc1cc(Cl)ccc1O`, for which the “activity change, negative = cytotoxicity” value was inactive: 4.39%.

For the compound `CCC/C(=N\NC(=O)c1ccco1)c1ccc(Cl)s1`, the “activity change, negative = cytotoxicity” value is inactive: 3.26%. As for `CCc1nc(Nc2cccc(F)c2)c2oc3ccccc3c2n1`, the “activity change, negative = cytotoxicity” value was inactive: -5.98%. As for `O=C(CCCc1ccccc1)Nc1cccc([N+](=O)[O-])c1`, the “activity change, negative = cytotoxicity” value was inactive: 3.05%. The same measure, in the same setting: the figure for `CSc1nc(N)nc(SCC(=O)c2ccccc2)c1C#N` is inactive: -2.92%; for `O=C(Nc1ccccc1)Nc1cccc2nsnc12` it is inactive: 0.0404%; for `COc1ccc(OC)c(C=C2CCc3ccccc3C2=O)c1` it is inactive: 1.45%. With `Cc1ccc(NC(=O)/C=C/c2ccc([N+](=O)[O-])s2)cc1`, the “activity change, negative = cytotoxicity” value was inactive: 3.69%.

As for `CCOc1c(Br)cc(C(N)=O)cc1OCc1ccccc1`, the “activity change, negative = cytotoxicity” value is inactive: 5.51%. Turning to `O=C(CCN1CCC(c2ccccc2)C1)c1ccc2c(c1)OCCO2` (stereo not given), the “activity change, negative = cytotoxicity” value was inactive: 11.4%. Take `CCOc1ncccc1C(=O)NNC(=O)c1ccc(NS(=O)(=O)c2cccs2)cc1`: the “activity change, negative = cytotoxicity” value is inactive: 5.04%. Consider `Cc1ccccc1C(=O)Nc1nc2c(C)csc2c(=O)s1`, for which the “activity change, negative = cytotoxicity” value was inactive: -13.3%.

For the compound `Cc1cccc(NC(=S)NC(=O)c2ccc(Br)o2)c1`, the “activity change, negative = cytotoxicity” value was inactive: 2.96%. As for `Cn1c(=O)oc2cc(NC(=O)CCl)ccc21`, the “activity change, negative = cytotoxicity” value is inactive: -15.3%.

Regarding `N#C/C(=C\c1ccccc1[N+](=O)[O-])c1nc(C2CC2)cs1`, the “activity change, negative = cytotoxicity” value is inactive: 2.2%.

In the case of `Cc1ccc2cccc(NC(=S)NC(=O)c3ccccc3)c2n1`, the “activity change, negative = cytotoxicity” value is inactive: -0.972%. Consider `Cc1cccc(N=C2NC(=O)S/C2=C\c2ccco2)c1`, for which the “activity change, negative = cytotoxicity” value was inactive: -0.442%.

For the compound `Cc1ccc(-n2nc3c([n+]2[O-])CCc2c-3no[n+]2[O-])cc1`, the “activity change, negative = cytotoxicity” value is inactive: -3.03%. For the compound `O=C(COC(=O)c1cc2ccccc2cc1O)Nc1ccccc1F`, the “activity change, negative = cytotoxicity” value was inactive: -11.3%. On to `COc1ccc(OC)c2sc(NC(=O)CCS(=O)(=O)c3ccccc3)nc12`, for which the “activity change, negative = cytotoxicity” value is inactive: -0.64%. On the same count and under the same terms, the figure for `COC1=C(C)C(O)=C(C(=O)/C=C/c2ccccc2)C(=O)C1(C)C` is inactive: 2.03%; for `COc1ccccc1C(=O)COC(=O)c1cccs1` it is inactive: 7.14%; for `CN1CCN(CCCNC(=O)c2cc3c(=O)n(C)c4ccccc4c3s2)CC1` it is inactive: -0.777%. `Clc1cccc(/C=N\Nc2nccs2)c1`: the “activity change, negative = cytotoxicity” value was inactive: 6.97%. Turning to `Cc1ccc(CC2S/C(=N/N=C/c3ccco3)NC2=O)cc1` (stereo not given), the “activity change, negative = cytotoxicity” value was inactive: -8.32%.

With `O=C(NC1CCCCC1)N(c1ccccc1)c1nnc(-c2cccc([N+](=O)[O-])c2)s1`, the “activity change, negative = cytotoxicity” value is inactive: 3.91%.

With `COc1ccc(COc2ccsc2C(=O)Nc2ccc(Cl)cc2)cc1`, the “activity change, negative = cytotoxicity” value is inactive: -18.8%.

Regarding `O=[N+]([O-])c1cc(Cl)cc2c1nc(NCCO)c1ccccc12`, the “activity change, negative = cytotoxicity” value was inactive: -0.426%.

Consider `S=c1[nH]nc(-c2ccco2)n1/N=C/c1cccc(Cl)c1Cl`, for which the “activity change, negative = cytotoxicity” value is inactive: 3.26%. Same read-out and setting: the figure for `Cc1ccc(CNC(=O)c2sccc2-n2cccc2)cc1` is inactive: -0.271%. In the case of `N#C/C(=C(/O)c1ccco1)c1nc2ccccc2s1`, the Potency entry is “inactive”. Consider `CN(C)CCCn1c2c3ccccc3ccc2c2oc(=O)c3ccccc3c21`, for which the “activity change, negative = cytotoxicity” value is inactive: -8.29%. `Cc1ccc(NC(=O)c2cc(=O)c3ccccc3o2)cc1`: the “activity change, negative = cytotoxicity” value was inactive: -3.33%.
